Test results reported in the supplement of paper PMC12819154, “High-throughput peptide-centric local stability assay extends protein–ligand identification to membrane proteins, tissues and bacteria” (Nature Structural & Molecular Biology, 2025).
The other results are listed elsewhere or left out. Most entries show no effect beyond the scatter of the controls.

Amino acid sequences for entries named in this document (tags omitted). A change or cut given only in a name is not applied to a line headed by its entry.
UniProt P22188: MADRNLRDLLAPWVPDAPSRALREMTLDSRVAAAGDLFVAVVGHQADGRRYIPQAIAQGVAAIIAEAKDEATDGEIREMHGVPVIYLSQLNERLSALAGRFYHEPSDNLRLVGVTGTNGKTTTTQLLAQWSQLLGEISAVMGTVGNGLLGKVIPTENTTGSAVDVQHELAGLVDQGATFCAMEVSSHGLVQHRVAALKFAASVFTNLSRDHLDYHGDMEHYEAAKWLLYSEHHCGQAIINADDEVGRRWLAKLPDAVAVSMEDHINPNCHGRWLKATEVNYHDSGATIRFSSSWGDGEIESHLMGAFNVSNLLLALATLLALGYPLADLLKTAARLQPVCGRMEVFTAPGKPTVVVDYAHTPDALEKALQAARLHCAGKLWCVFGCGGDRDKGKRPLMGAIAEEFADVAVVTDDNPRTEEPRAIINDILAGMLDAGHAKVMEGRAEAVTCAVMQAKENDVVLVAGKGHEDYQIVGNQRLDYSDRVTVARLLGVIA
UniProt P21693: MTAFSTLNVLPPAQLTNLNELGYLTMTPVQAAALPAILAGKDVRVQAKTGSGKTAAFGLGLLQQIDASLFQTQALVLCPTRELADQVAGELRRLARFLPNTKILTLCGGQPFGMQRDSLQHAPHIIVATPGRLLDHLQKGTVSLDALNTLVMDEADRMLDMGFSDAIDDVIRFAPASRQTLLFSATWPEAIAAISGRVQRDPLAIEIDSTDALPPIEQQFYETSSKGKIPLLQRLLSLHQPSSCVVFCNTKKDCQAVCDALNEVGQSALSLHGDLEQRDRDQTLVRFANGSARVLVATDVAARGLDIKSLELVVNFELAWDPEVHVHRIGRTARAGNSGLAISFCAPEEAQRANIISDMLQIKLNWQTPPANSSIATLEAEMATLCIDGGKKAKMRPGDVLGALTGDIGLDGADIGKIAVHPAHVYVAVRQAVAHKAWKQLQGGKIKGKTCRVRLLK
UniProt P24174: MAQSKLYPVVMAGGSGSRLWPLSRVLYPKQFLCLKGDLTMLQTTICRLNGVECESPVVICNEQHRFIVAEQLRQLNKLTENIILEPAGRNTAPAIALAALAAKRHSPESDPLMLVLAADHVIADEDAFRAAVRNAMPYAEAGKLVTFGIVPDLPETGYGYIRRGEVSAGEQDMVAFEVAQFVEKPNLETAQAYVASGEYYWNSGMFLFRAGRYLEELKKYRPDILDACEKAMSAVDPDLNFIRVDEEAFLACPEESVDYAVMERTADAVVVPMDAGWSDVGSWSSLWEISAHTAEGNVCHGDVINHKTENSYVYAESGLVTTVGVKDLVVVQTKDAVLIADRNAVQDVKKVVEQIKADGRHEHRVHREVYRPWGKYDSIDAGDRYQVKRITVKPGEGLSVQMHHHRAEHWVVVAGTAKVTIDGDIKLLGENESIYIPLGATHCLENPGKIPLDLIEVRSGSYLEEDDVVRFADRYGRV
UniProt P18392: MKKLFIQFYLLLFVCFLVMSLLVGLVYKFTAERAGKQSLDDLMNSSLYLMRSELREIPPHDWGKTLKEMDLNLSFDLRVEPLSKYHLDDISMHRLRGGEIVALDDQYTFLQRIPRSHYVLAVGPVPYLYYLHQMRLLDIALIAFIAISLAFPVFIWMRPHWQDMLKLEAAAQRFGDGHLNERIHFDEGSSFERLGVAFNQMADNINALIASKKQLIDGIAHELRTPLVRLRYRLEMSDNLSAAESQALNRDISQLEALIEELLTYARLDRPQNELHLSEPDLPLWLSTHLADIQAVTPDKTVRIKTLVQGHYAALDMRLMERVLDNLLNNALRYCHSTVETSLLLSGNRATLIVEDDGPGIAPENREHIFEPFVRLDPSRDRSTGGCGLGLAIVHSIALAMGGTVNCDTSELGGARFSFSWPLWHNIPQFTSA
UniProt P21362: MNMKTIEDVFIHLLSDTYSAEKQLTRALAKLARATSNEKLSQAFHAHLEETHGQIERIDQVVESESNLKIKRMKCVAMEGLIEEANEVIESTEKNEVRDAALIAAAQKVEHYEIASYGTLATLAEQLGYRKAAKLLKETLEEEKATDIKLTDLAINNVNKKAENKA
UniProt P16676: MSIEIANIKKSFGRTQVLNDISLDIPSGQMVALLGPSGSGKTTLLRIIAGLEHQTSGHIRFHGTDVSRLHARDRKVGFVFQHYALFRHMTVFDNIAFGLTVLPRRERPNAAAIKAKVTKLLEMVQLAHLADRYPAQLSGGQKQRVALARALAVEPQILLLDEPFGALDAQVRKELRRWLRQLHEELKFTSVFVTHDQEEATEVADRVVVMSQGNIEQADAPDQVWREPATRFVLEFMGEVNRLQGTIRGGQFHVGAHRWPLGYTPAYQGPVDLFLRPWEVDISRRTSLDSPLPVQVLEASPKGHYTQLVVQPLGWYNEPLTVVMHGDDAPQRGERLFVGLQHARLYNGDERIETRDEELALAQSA
UniProt P21893: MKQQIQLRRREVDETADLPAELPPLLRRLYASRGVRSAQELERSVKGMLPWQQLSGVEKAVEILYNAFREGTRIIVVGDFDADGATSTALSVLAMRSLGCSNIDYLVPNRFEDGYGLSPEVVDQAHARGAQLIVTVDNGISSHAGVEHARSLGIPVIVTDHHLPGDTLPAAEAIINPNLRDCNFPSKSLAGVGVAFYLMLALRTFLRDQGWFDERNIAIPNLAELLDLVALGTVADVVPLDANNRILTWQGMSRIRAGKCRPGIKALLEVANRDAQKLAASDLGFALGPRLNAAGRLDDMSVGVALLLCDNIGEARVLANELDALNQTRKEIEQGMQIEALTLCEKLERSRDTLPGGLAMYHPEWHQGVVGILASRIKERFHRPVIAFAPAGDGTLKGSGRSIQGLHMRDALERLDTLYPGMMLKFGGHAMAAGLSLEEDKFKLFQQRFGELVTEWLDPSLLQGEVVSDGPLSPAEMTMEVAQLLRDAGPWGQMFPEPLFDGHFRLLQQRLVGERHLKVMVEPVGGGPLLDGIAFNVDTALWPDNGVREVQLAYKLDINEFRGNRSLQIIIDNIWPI
UniProt P23836: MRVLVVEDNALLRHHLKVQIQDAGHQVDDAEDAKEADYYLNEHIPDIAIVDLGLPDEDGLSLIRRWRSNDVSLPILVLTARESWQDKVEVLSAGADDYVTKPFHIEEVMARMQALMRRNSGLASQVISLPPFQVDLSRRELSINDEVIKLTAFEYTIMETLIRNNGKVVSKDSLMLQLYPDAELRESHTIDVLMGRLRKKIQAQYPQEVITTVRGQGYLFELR
UniProt P22256: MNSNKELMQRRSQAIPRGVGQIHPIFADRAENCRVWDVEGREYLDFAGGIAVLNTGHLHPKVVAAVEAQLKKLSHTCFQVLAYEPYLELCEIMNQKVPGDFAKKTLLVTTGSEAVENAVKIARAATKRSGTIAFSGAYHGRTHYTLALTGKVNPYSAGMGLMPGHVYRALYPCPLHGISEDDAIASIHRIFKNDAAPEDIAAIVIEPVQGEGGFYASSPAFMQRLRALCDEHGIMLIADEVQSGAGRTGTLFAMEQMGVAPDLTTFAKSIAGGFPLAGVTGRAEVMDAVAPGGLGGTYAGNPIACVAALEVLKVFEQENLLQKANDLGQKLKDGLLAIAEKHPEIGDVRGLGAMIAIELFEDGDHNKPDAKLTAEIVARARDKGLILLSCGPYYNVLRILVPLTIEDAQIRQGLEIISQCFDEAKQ
UniProt P10100: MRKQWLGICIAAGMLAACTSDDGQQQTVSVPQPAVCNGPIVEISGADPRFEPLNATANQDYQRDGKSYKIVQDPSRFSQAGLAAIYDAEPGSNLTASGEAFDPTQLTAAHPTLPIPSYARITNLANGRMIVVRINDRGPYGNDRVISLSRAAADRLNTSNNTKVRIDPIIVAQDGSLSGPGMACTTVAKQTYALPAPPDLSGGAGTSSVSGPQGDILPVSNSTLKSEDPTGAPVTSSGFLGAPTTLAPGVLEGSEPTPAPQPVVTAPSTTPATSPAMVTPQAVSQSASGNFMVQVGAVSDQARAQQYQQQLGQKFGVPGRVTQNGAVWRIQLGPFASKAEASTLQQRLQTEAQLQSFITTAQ
UniProt P19319: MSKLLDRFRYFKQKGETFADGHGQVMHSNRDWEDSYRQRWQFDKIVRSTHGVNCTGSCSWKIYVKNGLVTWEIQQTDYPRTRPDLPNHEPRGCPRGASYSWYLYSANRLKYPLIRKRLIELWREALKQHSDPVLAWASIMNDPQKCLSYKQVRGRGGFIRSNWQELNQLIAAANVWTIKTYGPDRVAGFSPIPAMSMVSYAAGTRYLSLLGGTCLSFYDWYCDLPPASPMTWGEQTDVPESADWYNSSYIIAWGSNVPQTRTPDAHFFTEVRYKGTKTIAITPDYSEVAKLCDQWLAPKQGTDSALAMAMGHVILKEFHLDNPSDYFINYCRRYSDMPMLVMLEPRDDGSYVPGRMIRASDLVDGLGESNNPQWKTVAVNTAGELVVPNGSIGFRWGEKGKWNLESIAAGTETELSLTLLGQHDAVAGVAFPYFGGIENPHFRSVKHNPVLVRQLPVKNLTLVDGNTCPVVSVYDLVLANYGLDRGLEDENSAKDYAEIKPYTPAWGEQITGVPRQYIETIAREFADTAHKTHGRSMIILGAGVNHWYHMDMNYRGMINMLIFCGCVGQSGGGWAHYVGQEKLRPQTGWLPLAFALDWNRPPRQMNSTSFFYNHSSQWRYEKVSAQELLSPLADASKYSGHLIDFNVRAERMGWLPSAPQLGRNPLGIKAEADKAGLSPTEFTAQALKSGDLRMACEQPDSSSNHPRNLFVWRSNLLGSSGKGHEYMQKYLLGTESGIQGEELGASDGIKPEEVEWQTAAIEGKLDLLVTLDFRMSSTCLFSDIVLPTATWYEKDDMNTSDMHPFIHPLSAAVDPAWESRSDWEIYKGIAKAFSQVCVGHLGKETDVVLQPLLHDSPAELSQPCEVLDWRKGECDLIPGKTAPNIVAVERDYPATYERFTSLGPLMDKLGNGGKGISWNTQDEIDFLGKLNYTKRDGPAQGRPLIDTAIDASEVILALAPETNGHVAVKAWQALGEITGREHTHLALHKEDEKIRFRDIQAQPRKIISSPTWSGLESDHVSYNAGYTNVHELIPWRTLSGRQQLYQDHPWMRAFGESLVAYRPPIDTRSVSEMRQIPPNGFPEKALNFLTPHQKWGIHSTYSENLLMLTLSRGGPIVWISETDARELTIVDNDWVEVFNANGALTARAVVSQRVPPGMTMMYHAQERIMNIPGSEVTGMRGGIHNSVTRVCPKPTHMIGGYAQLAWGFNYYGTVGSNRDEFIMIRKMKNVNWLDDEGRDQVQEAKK
UniProt P0DSF4: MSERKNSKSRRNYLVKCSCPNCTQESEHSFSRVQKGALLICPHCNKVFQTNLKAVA
UniProt P15254: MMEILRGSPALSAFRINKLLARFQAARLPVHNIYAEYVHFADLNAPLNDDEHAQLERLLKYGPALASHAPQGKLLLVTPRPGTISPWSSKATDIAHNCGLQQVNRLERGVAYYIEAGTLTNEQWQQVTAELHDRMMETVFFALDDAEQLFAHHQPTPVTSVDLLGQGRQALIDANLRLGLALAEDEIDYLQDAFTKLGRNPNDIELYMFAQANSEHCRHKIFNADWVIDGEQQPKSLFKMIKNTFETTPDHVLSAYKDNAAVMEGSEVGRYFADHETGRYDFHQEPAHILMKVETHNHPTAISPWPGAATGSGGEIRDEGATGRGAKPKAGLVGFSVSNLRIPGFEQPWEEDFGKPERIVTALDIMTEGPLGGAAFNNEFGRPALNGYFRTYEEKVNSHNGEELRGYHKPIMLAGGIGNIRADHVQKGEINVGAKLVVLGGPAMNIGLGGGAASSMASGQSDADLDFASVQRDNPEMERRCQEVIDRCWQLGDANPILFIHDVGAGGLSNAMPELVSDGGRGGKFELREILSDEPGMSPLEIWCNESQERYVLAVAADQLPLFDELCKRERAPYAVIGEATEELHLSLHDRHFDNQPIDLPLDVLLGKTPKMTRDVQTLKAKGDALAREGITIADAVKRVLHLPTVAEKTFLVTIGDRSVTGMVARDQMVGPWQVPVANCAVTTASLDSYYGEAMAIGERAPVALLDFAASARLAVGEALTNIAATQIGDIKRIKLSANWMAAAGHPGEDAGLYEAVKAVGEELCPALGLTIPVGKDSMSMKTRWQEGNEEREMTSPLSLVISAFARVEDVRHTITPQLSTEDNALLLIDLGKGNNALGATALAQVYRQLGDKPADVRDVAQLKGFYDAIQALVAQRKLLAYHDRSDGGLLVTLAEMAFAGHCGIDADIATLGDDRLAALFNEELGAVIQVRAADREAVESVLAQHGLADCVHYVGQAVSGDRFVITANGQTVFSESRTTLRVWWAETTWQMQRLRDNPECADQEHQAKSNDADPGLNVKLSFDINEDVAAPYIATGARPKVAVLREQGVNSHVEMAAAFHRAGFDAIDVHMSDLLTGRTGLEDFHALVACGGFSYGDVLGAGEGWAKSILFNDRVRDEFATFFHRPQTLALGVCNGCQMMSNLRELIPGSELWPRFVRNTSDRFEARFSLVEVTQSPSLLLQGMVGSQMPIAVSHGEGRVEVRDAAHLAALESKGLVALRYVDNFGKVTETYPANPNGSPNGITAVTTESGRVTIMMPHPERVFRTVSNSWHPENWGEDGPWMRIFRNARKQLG

Compound: CC1(C)S[C@@H]2[C@H](NC(=O)[C@H](N)c3ccccc3)C(=O)N2[C@H]1C(=O)O [ampicillin]
Test: log2 fold change of tryptic peptide abundance, ligand vs vehicle (limited proteolysis) (log2 ratio); higher = more trypsin-susceptible (destabilized)
Details: ligand concentration: 10 uM; sample: E. coli crude lysate

Row | Target | log2 fold change
1 | UniProt P22188 (peptide sequence: LDYSDRVTVAR, peptide start residue: 479) | -0.0924
2 | UniProt P21693 (peptide sequence: ELADQVAGELR, peptide start residue: 82) | 0.19
3 | UniProt P0C077 (peptide sequence: ERSEVYSEAVKR, peptide start residue: 82) | -0.652
4 | UniProt P19317 (peptide sequence: TTSLLLFEHVHAESR, peptide start residue: 64) | -1.11
5 | UniProt P24174 (peptide sequence: FIVAEQLR, peptide start residue: 66) | -0.0976
6 | UniProt P19768 (peptide sequence: RIEDLER, peptide start residue: 143) | 0.268
7 | UniProt P18392 (peptide sequence: FTAERAGK, peptide start residue: 29) | -0.11
8 | UniProt P21170 (peptide sequence: SKFGLAATQVLQLVETLR, peptide start residue: 241) | 0.406
9 | UniProt P21362 (peptide sequence: LTDLAINNVNKK, peptide start residue: 150) | -0.0882
10 | UniProt P10907 (peptide sequence: LKTTSLYVTHDQVEAMTLAQR, peptide start residue: 184) | -0.222
11 | UniProt P0C0L2 (peptide sequence: GQAHWEGDIK, peptide start residue: 7) | -0.464
12 | UniProt P19926 (peptide sequence: GGVLEVYMGHYMR, peptide start residue: 75) | -0.199
13 | UniProt P16676 (peptide sequence: IIAGLEHQTSGHIR, peptide start residue: 47) | 0.311
14 | UniProt P23878 (peptide sequence: WRKEDEEAVTK, peptide start residue: 116) | 0.594
15 | UniProt P20099 (peptide sequence: KGFLASPENPQGIR, peptide start residue: 64) | -0.491
16 | UniProt P16095 (peptide sequence: ETSRGGLAIKVQCD, peptide start residue: 441) | -0.356
17 | UniProt P17802 (peptide sequence: CYAVSGWPGKK, peptide start residue: 148) | 0.185

Row | Target | log2 fold change
18 | UniProt P15877 (peptide sequence: TNESFQHVTCR, peptide start residue: 256) | -0.6
19 | UniProt P15081 (peptide sequence: IVDTLFMK, peptide start residue: 65) | 0.218
20 | UniProt P15028 (peptide sequence: LEQHKER, peptide start residue: 157) | 0.308
21 | UniProt P21893 (peptide sequence: KEIEQGMQIEALTLCEKLER, peptide start residue: 330) | -0.82
22 | UniProt P23256 (peptide sequence: GDWALLTSGSK, peptide start residue: 223) | 0.446
23 | UniProt P23836 (peptide sequence: ELSINDEVIK, peptide start residue: 140) | 0.12
24 | UniProt P18811 (peptide sequence: MVFLLHGGKDGEQLAQR, peptide start residue: 96) | -0.133
25 | UniProt P22256 (peptide sequence: VFEQENLLQK, peptide start residue: 314) | 0.33
26 | UniProt P0DM85 (peptide sequence: FAELESTLCR, peptide start residue: 539) | -0.209
27 | UniProt P21437 (peptide sequence: QIAEQERK, peptide start residue: 246) | -0.203
28 | UniProt P10100 (peptide sequence: AQQYQQQLGQK, peptide start residue: 304) | -0.141
29 | UniProt P19319 (peptide sequence: GETFADGHGQVMHSNR, peptide start residue: 15) | 0.398
30 | UniProt P20083 (peptide sequence: EVYYALTEEEKEGVLEQLKR, peptide start residue: 534) | 0.373
31 | UniProt P0AGL5 (peptide sequence: AKEVYSAR, peptide start residue: 151) | 0.0731
32 | UniProt P0DSF4 (peptide sequence: GALLICPHCNK, peptide start residue: 36) | -0.107
33 | UniProt P15254 (peptide sequence: DNPEMERR, peptide start residue: 473) | -0.699
